# Measurements from publication PMC11173892.
# Amino acid sequences for entries named in this document (tags omitted). A change or cut given only in a name is not applied to a line headed by its entry. Residues count along the entry.
# UniProt Q15165: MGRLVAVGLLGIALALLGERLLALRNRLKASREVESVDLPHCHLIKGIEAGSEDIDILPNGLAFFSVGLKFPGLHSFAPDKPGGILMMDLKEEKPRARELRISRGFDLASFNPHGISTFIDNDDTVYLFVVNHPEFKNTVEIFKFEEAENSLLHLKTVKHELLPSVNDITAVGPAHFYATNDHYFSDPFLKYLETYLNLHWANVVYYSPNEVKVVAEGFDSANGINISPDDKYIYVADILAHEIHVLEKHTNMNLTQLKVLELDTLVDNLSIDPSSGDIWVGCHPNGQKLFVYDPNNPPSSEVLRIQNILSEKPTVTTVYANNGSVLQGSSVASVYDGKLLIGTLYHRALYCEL
# UniProt P08729: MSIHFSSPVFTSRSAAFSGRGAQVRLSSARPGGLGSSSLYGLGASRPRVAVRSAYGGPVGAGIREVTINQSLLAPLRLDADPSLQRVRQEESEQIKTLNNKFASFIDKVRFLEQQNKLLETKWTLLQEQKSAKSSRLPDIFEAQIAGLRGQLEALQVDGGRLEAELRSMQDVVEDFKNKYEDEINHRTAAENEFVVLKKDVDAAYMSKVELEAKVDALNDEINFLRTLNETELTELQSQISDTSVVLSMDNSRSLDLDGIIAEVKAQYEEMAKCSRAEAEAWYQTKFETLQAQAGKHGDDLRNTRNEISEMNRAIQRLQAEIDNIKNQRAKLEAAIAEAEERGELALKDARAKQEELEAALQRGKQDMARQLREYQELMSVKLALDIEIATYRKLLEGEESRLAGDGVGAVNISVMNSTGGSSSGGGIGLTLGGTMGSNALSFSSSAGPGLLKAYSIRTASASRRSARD
# UniProt P25705, residues 44-553: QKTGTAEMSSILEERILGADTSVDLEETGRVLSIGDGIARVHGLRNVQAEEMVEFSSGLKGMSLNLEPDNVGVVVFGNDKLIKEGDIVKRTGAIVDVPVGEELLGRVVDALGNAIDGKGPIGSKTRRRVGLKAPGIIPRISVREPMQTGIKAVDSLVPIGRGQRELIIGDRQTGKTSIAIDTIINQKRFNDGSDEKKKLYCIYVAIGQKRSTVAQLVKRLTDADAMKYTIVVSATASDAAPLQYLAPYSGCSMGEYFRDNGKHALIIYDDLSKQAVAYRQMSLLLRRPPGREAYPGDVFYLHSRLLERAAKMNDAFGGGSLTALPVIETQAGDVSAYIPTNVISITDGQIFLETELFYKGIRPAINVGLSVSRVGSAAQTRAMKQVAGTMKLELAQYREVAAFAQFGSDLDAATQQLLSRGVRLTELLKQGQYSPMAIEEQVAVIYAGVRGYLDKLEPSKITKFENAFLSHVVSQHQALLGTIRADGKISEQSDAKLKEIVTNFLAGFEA
# UniProt P68363: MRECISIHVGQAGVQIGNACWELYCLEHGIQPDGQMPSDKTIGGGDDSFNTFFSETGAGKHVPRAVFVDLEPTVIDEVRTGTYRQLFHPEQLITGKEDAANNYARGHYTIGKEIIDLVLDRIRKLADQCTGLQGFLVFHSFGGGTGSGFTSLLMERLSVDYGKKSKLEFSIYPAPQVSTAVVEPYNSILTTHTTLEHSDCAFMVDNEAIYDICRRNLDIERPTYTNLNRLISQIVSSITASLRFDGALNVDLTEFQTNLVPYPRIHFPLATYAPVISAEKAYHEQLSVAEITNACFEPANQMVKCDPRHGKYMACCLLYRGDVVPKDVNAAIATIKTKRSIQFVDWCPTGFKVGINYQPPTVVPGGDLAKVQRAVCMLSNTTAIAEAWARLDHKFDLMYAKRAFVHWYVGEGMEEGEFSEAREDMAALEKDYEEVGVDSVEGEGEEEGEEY
# UniProt P12235: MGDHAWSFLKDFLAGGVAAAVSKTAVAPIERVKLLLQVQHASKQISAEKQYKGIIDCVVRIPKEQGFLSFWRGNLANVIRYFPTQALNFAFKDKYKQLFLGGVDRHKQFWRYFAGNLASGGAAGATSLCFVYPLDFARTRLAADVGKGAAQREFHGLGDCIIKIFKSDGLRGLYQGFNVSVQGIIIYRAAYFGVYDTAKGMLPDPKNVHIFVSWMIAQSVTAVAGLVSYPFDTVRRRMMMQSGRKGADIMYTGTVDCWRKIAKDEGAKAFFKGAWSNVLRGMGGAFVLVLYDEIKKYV
# UniProt P68104: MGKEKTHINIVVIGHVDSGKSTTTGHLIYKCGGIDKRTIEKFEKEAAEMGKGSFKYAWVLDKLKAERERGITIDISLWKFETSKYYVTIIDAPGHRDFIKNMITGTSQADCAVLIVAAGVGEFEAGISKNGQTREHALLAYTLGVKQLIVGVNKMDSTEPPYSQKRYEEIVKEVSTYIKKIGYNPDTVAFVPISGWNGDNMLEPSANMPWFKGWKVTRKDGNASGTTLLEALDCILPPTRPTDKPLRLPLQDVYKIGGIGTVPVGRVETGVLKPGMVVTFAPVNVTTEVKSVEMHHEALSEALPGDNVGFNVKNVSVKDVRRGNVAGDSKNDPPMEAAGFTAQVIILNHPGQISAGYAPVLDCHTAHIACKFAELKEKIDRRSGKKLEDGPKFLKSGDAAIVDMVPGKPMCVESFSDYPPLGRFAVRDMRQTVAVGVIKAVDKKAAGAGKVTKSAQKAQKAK
# UniProt Q15365: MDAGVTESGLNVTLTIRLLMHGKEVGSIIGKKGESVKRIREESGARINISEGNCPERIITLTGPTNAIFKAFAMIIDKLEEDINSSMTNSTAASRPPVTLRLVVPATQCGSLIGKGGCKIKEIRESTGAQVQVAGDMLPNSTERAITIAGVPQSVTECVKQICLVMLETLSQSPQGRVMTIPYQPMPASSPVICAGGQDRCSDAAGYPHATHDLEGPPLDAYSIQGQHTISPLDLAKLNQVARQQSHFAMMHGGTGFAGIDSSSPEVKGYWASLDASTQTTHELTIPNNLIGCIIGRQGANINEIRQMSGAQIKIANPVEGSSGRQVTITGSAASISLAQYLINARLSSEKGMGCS
# UniProt P31323: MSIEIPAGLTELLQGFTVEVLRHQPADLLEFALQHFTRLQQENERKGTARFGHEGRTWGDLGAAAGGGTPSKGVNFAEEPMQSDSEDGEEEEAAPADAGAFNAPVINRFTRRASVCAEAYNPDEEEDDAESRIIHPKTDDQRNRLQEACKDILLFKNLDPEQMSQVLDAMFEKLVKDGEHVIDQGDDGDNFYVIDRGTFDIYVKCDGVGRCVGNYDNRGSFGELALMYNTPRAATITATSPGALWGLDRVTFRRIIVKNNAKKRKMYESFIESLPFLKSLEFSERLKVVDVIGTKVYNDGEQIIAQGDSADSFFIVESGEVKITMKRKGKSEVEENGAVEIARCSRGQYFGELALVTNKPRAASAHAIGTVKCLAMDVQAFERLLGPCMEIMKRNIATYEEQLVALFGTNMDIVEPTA
# UniProt P68371: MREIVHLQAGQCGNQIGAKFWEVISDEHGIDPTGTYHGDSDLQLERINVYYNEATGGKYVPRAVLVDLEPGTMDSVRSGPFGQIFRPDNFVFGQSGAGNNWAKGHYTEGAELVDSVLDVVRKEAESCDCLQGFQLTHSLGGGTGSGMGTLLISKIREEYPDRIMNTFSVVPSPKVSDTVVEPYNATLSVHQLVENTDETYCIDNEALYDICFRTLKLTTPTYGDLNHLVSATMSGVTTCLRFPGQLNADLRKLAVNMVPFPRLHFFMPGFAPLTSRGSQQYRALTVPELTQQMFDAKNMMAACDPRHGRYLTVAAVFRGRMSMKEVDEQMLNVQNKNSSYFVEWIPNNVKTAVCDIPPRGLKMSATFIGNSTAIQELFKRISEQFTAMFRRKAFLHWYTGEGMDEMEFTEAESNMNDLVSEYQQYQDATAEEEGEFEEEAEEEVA
# UniProt P04264: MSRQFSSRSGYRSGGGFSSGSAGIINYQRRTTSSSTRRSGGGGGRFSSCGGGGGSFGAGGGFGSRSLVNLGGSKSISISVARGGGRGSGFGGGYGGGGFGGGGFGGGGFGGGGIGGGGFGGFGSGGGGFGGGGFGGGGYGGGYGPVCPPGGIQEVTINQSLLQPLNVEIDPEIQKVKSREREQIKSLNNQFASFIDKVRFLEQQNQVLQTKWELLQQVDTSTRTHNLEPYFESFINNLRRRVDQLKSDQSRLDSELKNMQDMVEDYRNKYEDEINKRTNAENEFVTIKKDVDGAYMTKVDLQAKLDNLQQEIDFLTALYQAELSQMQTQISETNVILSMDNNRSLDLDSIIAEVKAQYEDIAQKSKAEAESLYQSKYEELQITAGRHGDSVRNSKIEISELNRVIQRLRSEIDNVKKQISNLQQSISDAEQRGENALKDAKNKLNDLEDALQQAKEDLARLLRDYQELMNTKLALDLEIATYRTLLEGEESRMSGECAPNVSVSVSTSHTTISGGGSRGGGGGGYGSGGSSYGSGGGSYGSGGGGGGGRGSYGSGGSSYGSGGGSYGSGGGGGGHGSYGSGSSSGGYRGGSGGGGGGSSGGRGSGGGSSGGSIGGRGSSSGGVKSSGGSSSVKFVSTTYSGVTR
# UniProt P13861: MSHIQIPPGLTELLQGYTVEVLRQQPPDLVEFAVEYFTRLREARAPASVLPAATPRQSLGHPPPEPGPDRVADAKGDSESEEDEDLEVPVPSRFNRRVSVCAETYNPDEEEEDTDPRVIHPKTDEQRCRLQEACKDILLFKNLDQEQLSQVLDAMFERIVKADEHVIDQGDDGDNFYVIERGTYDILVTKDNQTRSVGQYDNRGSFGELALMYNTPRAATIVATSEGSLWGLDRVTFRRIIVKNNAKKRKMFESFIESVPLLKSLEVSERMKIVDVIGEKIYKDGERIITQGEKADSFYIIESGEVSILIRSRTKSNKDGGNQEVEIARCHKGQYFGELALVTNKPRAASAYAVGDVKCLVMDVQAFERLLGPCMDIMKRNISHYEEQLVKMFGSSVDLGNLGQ
# These are yes or no findings as the source states them, for the method shown. Binding seen in cells or lysates may run through a third protein. These calls come from enrichment with a bait or labelling near it, and not all partners need be listed.
# Molecular target: recombinant human paraoxonase 2 (rPON2) (human) (UniProt Q15165)
# Experiment: affinity purification with mass spectrometry; direct molecular fishing: purified His-tagged rPON2 (0.5 mg/mL, dialysed into modified RIPA buffer) incubated overnight at 4 °C with 5 mL HeLa extract (4.27 mg/mL), captured on nickel-NTA resin, washed twice with RIPA buffer, eluted with 300 mM …; LC-MS/MS; hits common to two independent experiments (A and B); only the target purified
row,binding,Molecule
1,binds,Keratin type II cytoskeletal 7 (from UniProt P08729 1-469)
2,binds,ATP synthase F1 subunit alpha (from UniProt P25705 44-553)
3,binds,Tubulin A1B (from UniProt P68363 1-451)
4,binds,ADP/ATP translocase 1 (from UniProt P12235 1-298)
5,binds,Elongation factor 1°1 (from UniProt P68104 1-462)
6,binds,Poly(rC)-binding protein 1 (from UniProt Q15365 1-356)
7,binds,cAMP-dependent protein kinase type II beta regulatory subunit (from UniProt P31323 1-418)
8,binds,Tubulin 4B (from UniProt P68371 1-445)
9,binds,Keratin type II cytoskeletal 1 (from UniProt P04264 1-644)
10,binds,cAMP-dependent protein kinase type II alpha regulatory subunit (from UniProt P13861 1-404)
11,binds,"Keratin type II cytoskeletal 9 (protein, UniProt P35527 1-623) MSCRQFSSSYLSRSGGGGGGGLGSGGSIRSSYSRFSSSGGGGGGGRFSSSSGYGGGSSRVCGRGGGGSFGYSYGGGSGGGFSASSLGGGFGGGSRGFGGASGGGYSSSGGFGGGFGGGSGGGFGGGYGSGFGGFGGFGGGAGGGDGGILTANEKSTMQELNSRLASYLDKVQALEEANNDLENKIQDWYDKKGPAAIQKNYSPYYNTIDDLKDQIVDLTVGNNKTLLDIDNTRMTLDDFRIKFEMEQNLRQGVDADINGLRQVLDNLTMEKSDLEMQYETLQEELMALKKNHKEEMSQLTGQNSGDVNVEINVAPGKDLTKTLNDMRQEYEQLIAKNRKDIENQYETQITQIEHEVSSSGQEVQSSAKEVTQLRHGVQELEIELQSQLSKKAALEKSLEDTKNRYCGQLQMIQEQISNLEAQITDVRQEIECQNQEYSLLLSIKMRLEKEIETYHNLLEGGQEDFESSGAGKIGLGGRGGSGGSYGRGSRGGSGGSYGGGGSGGGYGGGSGSRGGSGGSYGGGSGSGGGSGGGYGGGSGGGHSGGSGGGHSGGSGGNYGGGSGSGGGSGGGYGGGSGSRGGSGGSHGGGSGFGGESGGSYGGGEEASGSGGGYGGGSGKSSHS"
12,binds,"Peroxiredoxin1 (protein, UniProt Q06830 1-199) MSSGNAKIGHPAPNFKATAVMPDGQFKDISLSDYKGKYVVFFFYPLDFTFVCPTEIIAFSDRAEEFKKLNCQVIGASVDSHFCHLAWVNTPKKQGGLGPMNIPLVSDPKRTIAQDYGVLKADEGISFRGLFIIDDKGILRQITVNDLPVGRSVDETLRLVQAFQFTDKHGEVCPAGWKPGSDTIKPDVQKSKEYFSKQK"
13,binds,"Keratin type II cytoskeletal 18 (protein, UniProt P05783 1-430) MSFTTRSTFSTNYRSLGSVQAPSYGARPVSSAASVYAGAGGSGSRISVSRSTSFRGGMGSGGLATGIAGGLAGMGGIQNEKETMQSLNDRLASYLDRVRSLETENRRLESKIREHLEKKGPQVRDWSHYFKIIEDLRAQIFANTVDNARIVLQIDNARLAADDFRVKYETELAMRQSVENDIHGLRKVIDDTNITRLQLETEIEALKEELLFMKKNHEEEVKGLQAQIASSGLTVEVDAPKSQDLAKIMADIRAQYDELARKNREELDKYWSQQIEESTTVVTTQSAEVGAAETTLTELRRTVQSLEIDLDSMRNLKASLENSLREVEARYALQMEQLNGILLHLESELAQTRAEGQRQAQEYEALLNIKVKLEAEIATYRRLLEDGEDFNLGDALDSSNSMQTIQKTTTRRIVDGKVVSETNDTKVLRH"
14,binds,"Transketolase (protein, UniProt P29401 1-623) MESYHKPDQQKLQALKDTANRLRISSIQATTAAGSGHPTSCCSAAEIMAVLFFHTMRYKSQDPRNPHNDRFVLSKGHAAPILYAVWAEAGFLAEAELLNLRKISSDLDGHPVPKQAFTDVATGSLGQGLGAACGMAYTGKYFDKASYRVYCLLGDGELSEGSVWEAMAFASIYKLDNLVAILDINRLGQSDPAPLQHQMDIYQKRCEAFGWHAIIVDGHSVEELCKAFGQAKHQPTAIIAKTFKGRGITGVEDKESWHGKPLPKNMAEQIIQEIYSQIQSKKKILATPPQEDAPSVDIANIRMPSLPSYKVGDKIATRKAYGQALAKLGHASDRIIALDGDTKNSTFSEIFKKEHPDRFIECYIAEQNMVSIAVGCATRNRTVPFCSTFAAFFTRAFDQIRMAAISESNINLCGSHCGVSIGEDGPSQMALEDLAMFRSVPTSTVFYPSDGVATEKAVELAANTKGICFIRTSRPENAIIYNNNEDFQVGQAKVVLKSKDDQVTVIGAGVTLHEALAAAELLKKEKINIRVLDPFTIKPLDRKLILDSARATKGRILTVEDHYYEGGIGEAVSSAVVGEPGITVTHLAVNRVPRSGKPAELLKMFGIDRDAIAQAVRGLITKA"
15,binds,"Carbamoyl-phosphate synthase [ammonia], mitochondrial (protein, UniProt P31327 39-1500) LSVKAQTAHIVLEDGTKMKGYSFGHPSSVAGEVVFNTGLGGYPEAITDPAYKGQILTMANPIIGNGGAPDTTALDELGLSKYLESNGIKVSGLLVLDYSKDYNHWLATKSLGQWLQEEKVPAIYGVDTRMLTKIIRDKGTMLGKIEFEGQPVDFVDPNKQNLIAEVSTKDVKVYGKGNPTKVVAVDCGIKNNVIRLLVKRGAEVHLVPWNHDFTKMEYDGILIAGGPGNPALAEPLIQNVRKILESDRKEPLFGISTGNLITGLAAGAKTYKMSMANRGQNQPVLNITNKQAFITAQNHGYALDNTLPAGWKPLFVNVNDQTNEGIMHESKPFFAVQFHPEVTPGPIDTEYLFDSFFSLIKKGKATTITSVLPKPALVASRVEVSKVLILGSGGLSIGQAGEFDYSGSQAVKAMKEENVKTVLMNPNIASVQTNEVGLKQADTVYFLPITPQFVTEVIKAEQPDGLILGMGGQTALNCGVELFKRGVLKEYGVKVLGTSVESIMATEDRQLFSDKLNEINEKIAPSFAVESIEDALKAADTIGYPVMIRSAYALGGLGSGICPNRETLMDLSTKAFAMTNQILVEKSVTGWKEIEYEVVRDADDNCVTVCNMENVDAMGVHTGDSVVVAPAQTLSNAEFQMLRRTSINVVRHLGIVGECNIQFALHPTSMEYCIIEVNARLSRSSALASKATGYPLAFIAAKIALGIPLPEIKNVVSGKTSACFEPSLDYMVTKIPRWDLDRFHGTSSRIGSSMKSVGEVMAIGRTFEESFQKALRMCHPSIEGFTPRLPMNKEWPSNLDLRKELSEPSSTRIYAIAKAIDDNMSLDEIEKLTYIDKWFLYKMRDILNMEKTLKGLNSESMTEETLKRAKEIGFSDKQISKCLGLTEAQTRELRLKKNIHPWVKQIDTLAAEYPSVTNYLYVTYNGQEHDVNFDDHGMMVLGCGPYHIGSSVEFDWCAVSSIRTLRQLGKKTVVVNCNPETVSTDFDECDKLYFEELSLERILDIYHQEACGGCIISVGGQIPNNLAVPLYKNGVKIMGTSPLQIDRAEDRSIFSAVLDELKVAQAPWKAVNTLNEALEFAKSVDYPCLLRPSYVLSGSAMNVVFSEDEMKKFLEEATRVSQEHPVVLTKFVEGAREVEMDAVGKDGRVISHAISEHVEDAGVHSGDATLMLPTQTISQGAIEKVKDATRKIAKAFAISGPFNVQFLVKGNDVLVIECNLRASRSFPFVSKTLGVDFIDVATKVMIGENVDEKHLPTLDHPIIPADYVAIKAPMFSWPRLRDADPILRCEMASTGEVACFGEGIHTAFLKAMLSTGFKIPQKGILIGIQQSFRPRFLGVAEQLHNEGFKLFATEATSDWLNANNVPATPVAWPSQEGQNPSLSSIRKLIRDGSIDLVINLPNNNTKFVHDNYVIRRTAVDSGIPLLTNFQVTKLFAEAVQKSRKVDSKSLFHYRQYSAGKAA"
16,binds,"Heterogeneous nuclear ribonucleoprotein M (protein, UniProt P52272 1-730) MAAGVEAAAEVAATEIKMEEESGAPGVPSGNGAPGPKGEGERPAQNEKRKEKNIKRGGNRFEPYANPTKRYRAFITNIPFDVKWQSLKDLVKEKVGEVTYVELLMDAEGKSRGCAVVEFKMEESMKKAAEVLNKHSLSGRPLKVKEDPDGEHARRAMQKVMATTGGMGMGPGGPGMITIPPSILNNPNIPNEIIHALQAGRLGSTVFVANLDYKVGWKKLKEVFSMAGVVVRADILEDKDGKSRGIGTVTFEQSIEAVQAISMFNGQLLFDRPMHVKMDERALPKGDFFPPERPQQLPHGLGGIGMGLGPGGQPIDANHLNKGIGMGNIGPAGMGMEGIGFGINKMGGMEGPFGGGMENMGRFGSGMNMGRINEILSNALKRGEIIAKQGGGGGGGSVPGIERMGPGIDRLGGAGMERMGAGLGHGMDRVGSEIERMGLVMDRMGSVERMGSGIERMGPLGLDHMASSIERMGQTMERIGSGVERMGAGMGFGLERMAAPIDRVGQTIERMGSGVERMGPAIERMGLSMERMVPAGMGAGLERMGPVMDRMATGLERMGANNLERMGLERMGANSLERMGLERMGANSLERMGPAMGPALGAGIERMGLAMGGGGGASFDRAIEMERGNFGGSFAGSFGGAGGHAPGVARKACQIFVRNLPFDFTWKMLKDKFNECGHVLYADIKMENGKSKGCGVVKFESPEVAERACRMMNGMKLSGREIDVRIDRNA"
17,binds,"tRNA N(3)-methylcytidine methyltransferase (protein, UniProt Q6P1Q9 1-378) MAGSYPEGAPAILADKRQQFGSRFLSDPARVFHHNAWDNVEWSEEQAAAAERKVQENSIQRVCQEKQVDYEINAHKYWNDFYKIHENGFFKDRHWLFTEFPELAPSQNQNHLKDWFLENKSEVCECRNNEDGPGLIMEEQHKCSSKSLEHKTQTPPVEENVTQKISDLEICADEFPGSSATYRILEVGCGVGNTVFPILQTNNDPGLFVYCCDFSSTAIELVQTNSEYDPSRCFAFVHDLCDEEKSYPVPKGSLDIIILIFVLSAVVPDKMQKAINRLSRLLKPGGMVLLRDYGRYDMAQLRFKKGQCLSGNFYVRGDGTRVYFFTQEELDTLFTTAGLEKVQNLVDRRLQVNRGKQLTMYRVWIQCKYCKPLLSSTS"
